These are yes or no findings as the source states them, for the method shown. For some assays here: Binding seen in cells or lysates may run through a third protein. Some results given as binding are weak or reduced against the parent protein; the word gives no strength. Each block holds one substance with its values, some of them ahead of it.
Tests used:
[1] = biological target: L1-Fc comprising the extracellular part of mouse L1 fused to Fc part of human IgG (mouse) (UniProt P11627); experiment: pull-down; L1-Fc or Fc on Protein A beads with supernatants of Reelin-expressing and Reelin-lacking HEK cells; immunoblot with Reelin antibody G10; only the target purified
[2] = biological target: L1-Fc comprising the extracellular part of mouse L1 fused to Fc part of human IgG (mouse) (UniProt P11627); experiment: ELISA; L1-Fc or Fc substrate-coated; Reelin-containing HEK cell supernatant applied; detected with Reelin antibody G10; only the target purified
[3] = biological target: purified recombinant Reelin (mouse) (UniProt Q60841); experiment: ELISA; purified recombinant Reelin substrate-coated on 384-well plates (4 °C overnight), blocked with 1% BSA in PBS; 5 µg of L1-Fc or Fc added, room temperature 1 h; detected with anti-Fc-HRP; both purified
[4] = biological target: full-length Reelin (mouse) (UniProt Q60841); experiment: ELISA; 5 µg of serum-free Reelin-containing HEK supernatant (concentrated 5-fold, dialysed) substrate-coated on 384-well plates; 5 µg of L1-Fc or Fc added, room temperature 1 h; detected with anti-Fc-HRP; only the binder purified
[5] = biological target: L1-Fc comprising the extracellular part of mouse L1 fused to Fc part of human IgG (mouse) (UniProt P11627); experiment: ELISA; 5 µg of L1-Fc or Fc substrate-coated on 384-well plates; 5 µg of purified Reelin added, room temperature 1 h; detected with Reelin antibody G10; both purified

Sequences of proteins named here, by UniProt entry; tags and fusion partners are left off. Residues count along the entry.
UniProt P11627, residues 20-1123: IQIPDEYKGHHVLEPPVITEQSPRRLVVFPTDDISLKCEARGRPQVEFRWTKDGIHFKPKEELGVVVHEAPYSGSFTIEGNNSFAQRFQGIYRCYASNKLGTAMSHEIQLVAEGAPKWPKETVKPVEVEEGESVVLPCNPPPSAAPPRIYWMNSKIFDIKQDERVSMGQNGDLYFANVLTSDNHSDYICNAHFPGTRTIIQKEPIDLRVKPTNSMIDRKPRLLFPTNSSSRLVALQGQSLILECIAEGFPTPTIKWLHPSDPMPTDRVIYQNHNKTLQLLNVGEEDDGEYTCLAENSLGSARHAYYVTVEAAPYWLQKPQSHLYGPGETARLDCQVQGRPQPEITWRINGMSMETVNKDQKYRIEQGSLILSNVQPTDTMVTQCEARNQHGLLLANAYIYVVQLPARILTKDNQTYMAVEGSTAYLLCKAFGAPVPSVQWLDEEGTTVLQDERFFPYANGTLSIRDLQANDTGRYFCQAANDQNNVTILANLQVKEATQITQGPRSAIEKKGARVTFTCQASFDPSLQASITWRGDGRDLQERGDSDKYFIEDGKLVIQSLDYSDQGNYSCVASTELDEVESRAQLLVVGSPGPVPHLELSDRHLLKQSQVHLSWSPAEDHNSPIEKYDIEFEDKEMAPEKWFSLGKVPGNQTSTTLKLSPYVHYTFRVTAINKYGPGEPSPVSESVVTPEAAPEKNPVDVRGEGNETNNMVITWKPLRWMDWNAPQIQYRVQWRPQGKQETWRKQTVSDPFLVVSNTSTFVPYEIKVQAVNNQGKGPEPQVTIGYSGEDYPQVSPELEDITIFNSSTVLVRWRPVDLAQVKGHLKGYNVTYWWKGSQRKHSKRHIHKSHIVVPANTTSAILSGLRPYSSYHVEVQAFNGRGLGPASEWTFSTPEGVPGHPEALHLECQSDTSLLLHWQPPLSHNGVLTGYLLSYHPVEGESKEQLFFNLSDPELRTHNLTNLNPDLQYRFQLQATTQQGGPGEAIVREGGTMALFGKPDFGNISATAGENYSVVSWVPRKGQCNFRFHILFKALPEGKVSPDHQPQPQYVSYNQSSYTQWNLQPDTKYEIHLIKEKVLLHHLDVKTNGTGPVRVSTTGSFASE
UniProt Q60841, residues 27-3461: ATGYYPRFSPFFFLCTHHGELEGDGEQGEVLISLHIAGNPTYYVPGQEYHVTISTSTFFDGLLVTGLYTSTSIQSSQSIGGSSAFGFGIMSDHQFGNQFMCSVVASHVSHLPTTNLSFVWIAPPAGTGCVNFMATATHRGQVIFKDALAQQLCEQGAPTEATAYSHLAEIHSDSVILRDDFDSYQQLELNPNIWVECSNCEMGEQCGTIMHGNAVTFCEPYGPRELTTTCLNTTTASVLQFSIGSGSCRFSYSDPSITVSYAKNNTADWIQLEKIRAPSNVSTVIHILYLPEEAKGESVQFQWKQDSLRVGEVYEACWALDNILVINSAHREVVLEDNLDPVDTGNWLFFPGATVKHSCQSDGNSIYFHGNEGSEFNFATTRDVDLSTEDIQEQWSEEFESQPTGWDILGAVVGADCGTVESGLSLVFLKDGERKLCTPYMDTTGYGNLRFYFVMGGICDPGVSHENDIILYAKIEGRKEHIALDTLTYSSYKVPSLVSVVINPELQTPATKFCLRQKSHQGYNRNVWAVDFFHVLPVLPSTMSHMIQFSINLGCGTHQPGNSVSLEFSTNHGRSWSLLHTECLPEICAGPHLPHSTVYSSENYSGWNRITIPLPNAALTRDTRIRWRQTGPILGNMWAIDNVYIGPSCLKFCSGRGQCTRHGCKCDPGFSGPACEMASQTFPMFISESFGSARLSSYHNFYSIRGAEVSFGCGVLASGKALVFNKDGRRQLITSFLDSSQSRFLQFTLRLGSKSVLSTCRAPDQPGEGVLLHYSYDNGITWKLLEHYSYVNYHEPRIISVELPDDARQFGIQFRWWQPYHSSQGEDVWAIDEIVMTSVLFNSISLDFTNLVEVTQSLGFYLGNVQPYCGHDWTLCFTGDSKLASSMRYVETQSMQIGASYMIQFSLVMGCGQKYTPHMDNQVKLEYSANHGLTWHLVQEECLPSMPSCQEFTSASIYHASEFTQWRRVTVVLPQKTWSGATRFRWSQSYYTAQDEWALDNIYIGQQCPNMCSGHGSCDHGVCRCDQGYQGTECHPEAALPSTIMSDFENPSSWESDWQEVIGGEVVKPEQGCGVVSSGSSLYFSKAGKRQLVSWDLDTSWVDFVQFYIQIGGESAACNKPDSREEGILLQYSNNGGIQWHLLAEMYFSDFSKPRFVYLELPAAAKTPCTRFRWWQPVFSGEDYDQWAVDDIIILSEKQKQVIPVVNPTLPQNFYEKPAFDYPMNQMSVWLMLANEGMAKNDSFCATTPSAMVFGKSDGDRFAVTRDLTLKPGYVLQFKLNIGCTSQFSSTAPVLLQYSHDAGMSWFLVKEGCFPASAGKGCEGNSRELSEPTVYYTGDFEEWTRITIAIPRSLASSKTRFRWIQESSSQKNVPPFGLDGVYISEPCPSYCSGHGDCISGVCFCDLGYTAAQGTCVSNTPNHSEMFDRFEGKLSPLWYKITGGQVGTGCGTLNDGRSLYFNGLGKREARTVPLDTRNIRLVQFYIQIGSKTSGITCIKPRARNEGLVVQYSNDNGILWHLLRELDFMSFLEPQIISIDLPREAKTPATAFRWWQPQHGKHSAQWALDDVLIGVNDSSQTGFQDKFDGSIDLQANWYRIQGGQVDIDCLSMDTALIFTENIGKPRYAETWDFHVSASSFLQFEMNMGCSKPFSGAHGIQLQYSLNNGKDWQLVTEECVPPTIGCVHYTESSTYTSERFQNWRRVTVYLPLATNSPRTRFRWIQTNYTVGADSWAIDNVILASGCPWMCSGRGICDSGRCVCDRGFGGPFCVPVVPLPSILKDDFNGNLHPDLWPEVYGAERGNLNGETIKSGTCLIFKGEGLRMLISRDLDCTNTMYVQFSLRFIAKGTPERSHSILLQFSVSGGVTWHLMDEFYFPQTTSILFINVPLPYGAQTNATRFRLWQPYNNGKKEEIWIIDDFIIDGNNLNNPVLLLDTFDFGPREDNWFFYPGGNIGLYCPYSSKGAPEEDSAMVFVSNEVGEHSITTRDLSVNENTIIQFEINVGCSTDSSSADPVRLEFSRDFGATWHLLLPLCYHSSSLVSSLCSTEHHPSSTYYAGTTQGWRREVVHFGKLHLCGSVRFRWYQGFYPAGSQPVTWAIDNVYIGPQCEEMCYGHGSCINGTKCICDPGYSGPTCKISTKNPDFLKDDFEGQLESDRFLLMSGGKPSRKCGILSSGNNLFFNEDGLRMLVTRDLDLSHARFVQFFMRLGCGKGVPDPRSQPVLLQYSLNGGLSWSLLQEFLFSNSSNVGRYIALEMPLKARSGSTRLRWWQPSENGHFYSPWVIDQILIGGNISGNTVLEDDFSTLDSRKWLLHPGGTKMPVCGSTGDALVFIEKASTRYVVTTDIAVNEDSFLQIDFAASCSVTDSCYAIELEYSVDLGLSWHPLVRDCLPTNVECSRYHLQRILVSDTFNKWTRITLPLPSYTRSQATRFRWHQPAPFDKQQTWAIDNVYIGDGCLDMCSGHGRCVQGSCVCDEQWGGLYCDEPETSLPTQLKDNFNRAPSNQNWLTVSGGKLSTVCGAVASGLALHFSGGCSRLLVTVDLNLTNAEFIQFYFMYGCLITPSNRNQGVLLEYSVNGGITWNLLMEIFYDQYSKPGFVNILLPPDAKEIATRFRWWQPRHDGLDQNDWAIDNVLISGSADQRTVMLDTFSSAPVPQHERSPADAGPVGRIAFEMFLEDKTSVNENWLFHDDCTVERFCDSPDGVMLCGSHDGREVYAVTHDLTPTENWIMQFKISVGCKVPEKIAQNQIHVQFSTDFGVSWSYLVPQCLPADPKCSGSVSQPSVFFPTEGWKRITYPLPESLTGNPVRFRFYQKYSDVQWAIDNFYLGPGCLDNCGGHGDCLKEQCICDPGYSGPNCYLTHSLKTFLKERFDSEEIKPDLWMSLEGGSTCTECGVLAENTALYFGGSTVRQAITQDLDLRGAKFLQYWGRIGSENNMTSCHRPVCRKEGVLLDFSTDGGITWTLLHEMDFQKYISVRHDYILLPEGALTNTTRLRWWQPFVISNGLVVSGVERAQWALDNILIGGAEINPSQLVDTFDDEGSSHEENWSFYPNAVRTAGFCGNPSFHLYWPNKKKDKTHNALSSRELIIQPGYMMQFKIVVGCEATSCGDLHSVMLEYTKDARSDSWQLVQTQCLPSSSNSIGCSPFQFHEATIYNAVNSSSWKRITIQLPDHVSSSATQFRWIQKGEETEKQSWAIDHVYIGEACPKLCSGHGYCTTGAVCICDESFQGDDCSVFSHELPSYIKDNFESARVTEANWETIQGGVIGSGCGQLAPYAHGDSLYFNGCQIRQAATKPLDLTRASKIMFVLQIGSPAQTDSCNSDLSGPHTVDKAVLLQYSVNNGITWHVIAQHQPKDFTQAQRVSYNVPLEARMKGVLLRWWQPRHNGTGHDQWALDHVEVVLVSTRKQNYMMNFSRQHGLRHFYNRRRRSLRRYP

binding [1]: binds | binding [2]: binds
Substance: full-length Reelin (from UniProt Q60841 27-3461)

binding [3]: binds | binding [4]: binds
Substance: L1-Fc comprising the extracellular part of mouse L1 fused to Fc part of human IgG (from UniProt P11627 20-1123) (Fc fusion)

binding [5]: binds
Substance: purified recombinant Reelin (from UniProt Q60841 27-3461)
